Measured values from ChEMBL document CHEMBL1828497, “Novel indole and azaindole (pyrrolopyridine) cannabinoid (CB) receptor agonists: design, synthesis, structure-activity relationships, physicochemical properties and biological activity” (Eur J Med Chem, 2011).
≈ marks a conversion by molar mass, not a printed value.

Tests used:
[1] = Lipophilicity, log D of the compound at pH 7.4; conditions: buffer
[2] = physchem; conditions: buffer, pH 7.4
[3] = physchem; conditions: buffer, pH 4
[4] = physchem; conditions: buffer, pH 7.4; remark: listed apart in the source
[5] = physchem; conditions: buffer, pH 7.4; remark: listed apart in the source

CCCCCn1cc(C(=O)c2cccc3ccccc23)c2cnccc21
logD [1]: 4.44 | solubility thermodynamic at 24 h [2]: 5 µM (≈ 1.71 µg/mL) | solubility thermodynamic at 24 h [3]: 133 µM (≈ 45.5 µg/mL) | solubility kinetic [4]: 10 µM (≈ 3.42 µg/mL) | solubility kinetic [5]: 30 µM (≈ 10.3 µg/mL)
